Assay results

From PubChem BioAssay record AID1159506 (NCATS, 2015).

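Luminescence from an EWS-FLI1 target-promoter (NR0B1) reporter, set against a CMV-promoter reporter, two days after silencing single genes in TC32 Ewing sarcoma cells.
Each siRNA was applied at 20 nM.
A z-score of the log NR0B1-over-CMV signal, less the median of siRNAs with the same seed; more negative means a stronger specific loss of the NR0B1 reporter.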

The strongest results of the screen are mostly left out here.
Sequences are the guide (antisense) strand, without overhang.

With AAUGGGAUUACGUAAAGGG against OR4M2 the assay gave seed-corrected z-score -0.4011.
With AGAUAGAUGAGCAAGACCC against OR52E2 the assay gave seed-corrected z-score -0.8981.
With UAAGUUGACAUCUAUGCCU against CRIPT the assay gave seed-corrected z-score 0.7012.
With UUCAUAUCCACAGGUAUUC against ANKEF1 the assay gave seed-corrected z-score -0.6466.
With UGACAAGUAAGAUGGAACC against M6PR the assay gave seed-corrected z-score 0.3367.
With AAAGCGAUCAAACUCUUGC against RECK the assay gave seed-corrected z-score 0.2294.
With UGACUAUUAUGUCAGAUGC against SP100 the assay gave seed-corrected z-score -1.75.
With UACUCGAGGAGUGUUCUUG against ZNF823 the assay gave seed-corrected z-score 0.4164.
With UCUGAUACCACUGUCCAGU against UBASH3A the assay gave seed-corrected z-score 0.6185.
With UUACGUAUUCAAAUAAGCC against SRD5A1 the assay gave seed-corrected z-score 0.1007.
With UCGUCGAAAUUCUCGCUGC against CRABP1 the assay gave seed-corrected z-score -0.04165.
With UAUGGUAGUAGUAGCCCUC against GID4 the assay gave seed-corrected z-score -0.6321.
With UUUUCACCCACUCCAGCAC against LOC389895 the assay gave seed-corrected z-score 0.9189.
With UCAGGGAAGACUUGAGCUG against LTA the assay gave seed-corrected z-score 0.07189.
With UAUCAUUUCUGCUGCAUAC against SRP19 the assay gave seed-corrected z-score -0.1059.
With AACCGUGUUAGUUAGAUGC against SREK1 the assay gave seed-corrected z-score -0.2637.
With UUCGAUCCAGGUUAGAGUC against NID1 the assay gave seed-corrected z-score 0.5052.
With ACGUUGAUAGCAUAGGUGG against VKORC1 the assay gave seed-corrected z-score -0.3964.
With UGUUAUUGCACAGUCGAGC against SART3 the assay gave seed-corrected z-score 0.8932.
With UAUCAUAUCCGUAGUCUUC against GIF the assay gave seed-corrected z-score 0.6335.
With UCUGUUGUUUAUCCUCAGG against GOLGA6L7P the assay gave seed-corrected z-score -1.683.
With CAGGAAGUUGUUGCCACCG against LOC642648 the assay gave seed-corrected z-score -0.5525.
With UUAGCUUCAACGCGUUUCC against CFAP47 the assay gave seed-corrected z-score -0.3581.
With UUGGUGAUGUCAGACAUGU against NAT8B the assay gave seed-corrected z-score -0.1091.
With AUAUCGUUCGUUCAGAUUC against ULK2 the assay gave seed-corrected z-score 0.1092.
With UUAGGAUCAACAUCCAGGA against PSMC3 the assay gave seed-corrected z-score -0.7235.
With AACUUGGAUGUUAUUACUC against SPATA9 the assay gave seed-corrected z-score -0.6132.
With UCUGCUCGUAGAAAUCGGC against NAGLU the assay gave seed-corrected z-score -1.662.
With AUCGGGAAAACUUAAGUCA against SBF2-AS1 the assay gave seed-corrected z-score 0.9735.
With UGAAUGAUAUUCCUUAUCC against DNAJC9 the assay gave seed-corrected z-score -0.7663.
With ACACUUGAAAUGAGCUUCG against ISCA2 the assay gave seed-corrected z-score -0.3692.
With AUUGCUUACAUCGUUUUUC against ADH1A the assay gave seed-corrected z-score -1.031.
With AAUGGUCUCACGGAUGCCU against DHPS the assay gave seed-corrected z-score -0.3064.
With UAAGUGAAAUGUGACCUCA against MAFF the assay gave seed-corrected z-score 0.7184.
With AUCUGGACCGGAUGAAUCC against PEX5L the assay gave seed-corrected z-score 0.1503.
With UGCACAGGACUGUUUAUGC against PATE2 the assay gave seed-corrected z-score -0.8555.
With UUUCCAAUUAGGGUUGCAC against VMP1 the assay gave seed-corrected z-score -0.3498.
With UUUCGAACAAUUAACCGCC against ASPM the assay gave seed-corrected z-score 0.4266.
With ACAAUAAAUAUUAUAGUGC against LRP5L the assay gave seed-corrected z-score 0.5429.